Reference: patent US10342221B2, “Generation of an inducible pericyte-specific CRE mouse model” (University of Southern California, priority 2016, dated 2019)
For at least one compound, name, drawing or mass did not settle the structure.

Tested on: Tet-on 293T cells
Experiment: Doxycycline-induced PDGFRβ expression from the pTRE-LSL-Pdgfrβ construct
Type: cell-based
Settings: Tet-on 293T cells transfected with pTRE-LSL-Pdgfrβ; 1, 10, 100, 1000 ng/ml

C[C@H]1c2cccc(O)c2C(=O)C2=C(O)[C@]3(O)C(=O)C(C(N)=O)=C(O)[C@@H](N(C)C)[C@@H]3[C@@H](O)[C@@H]21 [Doxycycline]
expression of PDGFRβ: strong and dose-dependent expression
